The values below come from PMC8748879.

Amino acid sequences for entries named in this document (tags omitted).
UniProt P04406: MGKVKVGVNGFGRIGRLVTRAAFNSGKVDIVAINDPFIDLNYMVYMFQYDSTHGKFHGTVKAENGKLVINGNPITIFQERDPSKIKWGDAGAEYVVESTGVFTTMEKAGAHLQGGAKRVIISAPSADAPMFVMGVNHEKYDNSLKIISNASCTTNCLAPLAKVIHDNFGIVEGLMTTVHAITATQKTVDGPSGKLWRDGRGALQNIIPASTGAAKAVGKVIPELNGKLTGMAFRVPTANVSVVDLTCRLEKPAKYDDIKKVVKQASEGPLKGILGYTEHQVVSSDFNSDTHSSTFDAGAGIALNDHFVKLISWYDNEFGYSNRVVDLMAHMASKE

This experiment deals with T1, catalytically inactive RNase H fused to Turbo biotin ligase (RHΔ-Turbo-F) (UniProt P0A7Y4).
T1 sequence: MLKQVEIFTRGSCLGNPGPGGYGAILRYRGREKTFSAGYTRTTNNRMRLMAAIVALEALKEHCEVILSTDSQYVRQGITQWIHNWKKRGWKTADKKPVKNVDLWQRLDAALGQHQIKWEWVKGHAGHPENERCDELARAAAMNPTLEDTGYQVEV
The experiment in a line: proximity labelling; TurboID in stable HEK293 lines, biotin pulse 10 min, high salt nuclear extract, streptavidin beads with denaturing washes, eluates read by western blot.

Results are given in words; binding and its absence hold for the method and conditions named. In cells and extracts the contact can be indirect. These calls come from enrichment with a bait or labelling near it, and not all partners need be listed. No binding means not detected with the bait. Where a sequence is shown, tags or fusion partners need not be part of it.

Turning to GAPDH (from UniProt P04406 1-335), the binding entry is “no binding”.
